Earlier results on 1 molecule are cited in patent US4499094A, “Derivatives of arene and hetero-arene carboxamides and their use as medicaments” (Pharmuka Laboratoires, priority 1982, dated 1985).

Each structure is given as a SMILES string.

This data set deals with binding sites of (^3 H) diazepam in the brain. The conditions noted are these: rank order; cited from earlier work.

For `CN1C(=O)CN=C(c2ccccc2)c2cc(Cl)ccc21` [diazepam], the “classification by decreasing affinity, "cerebral" type” value is “clonazepan>diazepam>Ro-5-4864”.
